Laboratory results: PubChem BioAssay AID504808 (Drosophila RNAi Screening Center, 2011)
Purpose: 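Chromatin factors that keep E2F targets switched off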 (primary screen). Cells: Drosophila S2 cells. Reagent: long dsRNA against Drosophila genes. Read-out: 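Dual luciferase plate measurements; E2F-specific signal taken as firefly over Renilla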. Direction: E2F firefly: higher = more E2F reporter activity; Renilla normaliser: higher = more normaliser reporter signal. Rule for the call: 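Called active if the normalised E2F reporter went up by over 50%; the cutoff is arbitrary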.
In all, the deposit lists about 21,000 reagents; shown is an unselected part of those with a known target gene and a result. Over the whole deposit, 18 (0.084%) got an active call. 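Raw counts without plate normalisation, one of two replicates; the ratio scores behind the calls were not deposited.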 Reagents against one gene are numbered here. Reagent sequences are not shown. Not stated in the record: the amount of reagent, the time to read-out.

With CG13630, what does the deposit list?
E2F firefly, rep 1: 76837; Renilla normaliser, rep 1: 4221; outcome: inactive

What is on record for kl-3 (retired record) #1?
E2F firefly, rep 1: 83809; Renilla normaliser, rep 1: 2617; outcome: inactive

For kl-3 (retired record) #2, what was measured?
E2F firefly, rep 1: 1.35e5; Renilla normaliser, rep 1: 6116; outcome: inactive

For kl-3 (retired record) #3, how do the results read?
E2F firefly, rep 1: 95875; Renilla normaliser, rep 1: 3719; outcome: inactive

With eIF2Bgamma (eukaryotic translation initiation factor 2B subunit gamma), how do the results read?
E2F firefly, rep 1: 70773; Renilla normaliser, rep 1: 3132; outcome: inactive

For Vha16-1 (Vacuolar H[+] ATPase 16kD subunit 1), what does the deposit list?
E2F firefly, rep 1: 1.13e5; Renilla normaliser, rep 1: 4484; outcome: inactive

What is on record for CG12723?
E2F firefly, rep 1: 70165; Renilla normaliser, rep 1: 5257; outcome: inactive

For ph-p (polyhomeotic proximal), what was measured?
E2F firefly, rep 1: 1.31e5; Renilla normaliser, rep 1: 6570; outcome: inactive

Which result is listed for CG13101?
E2F firefly, rep 1: 85420; Renilla normaliser, rep 1: 3478; outcome: inactive

For CG30053, what was measured?
E2F firefly, rep 1: 93246; Renilla normaliser, rep 1: 3282; outcome: inactive

For Mtl (Mig-2-like), what was measured?
E2F firefly, rep 1: 1.22e5; Renilla normaliser, rep 1: 6091; outcome: inactive

Which result is listed for RpS28a (Ribosomal protein S28a)?
E2F firefly, rep 1: 1.06e5; Renilla normaliser, rep 1: 6263; outcome: inactive

Quoted from above, 2 entries:
CG13630 | E2F firefly, rep 1 = 76837; Renilla normaliser, rep 1 = 4221; outcome = inactive
kl-3 (retired record) #1 | E2F firefly, rep 1 = 83809; Renilla normaliser, rep 1 = 2617; outcome = inactive

The listing continues.
How did the screen score CG33978?
E2F firefly, rep 1: 78234; Renilla normaliser, rep 1: 2430; outcome: inactive

With grsm (granny smith) #1, how do the results read?
E2F firefly, rep 1: 96543; Renilla normaliser, rep 1: 5854; outcome: inactive

What is on record for grsm (granny smith) #2?
E2F firefly, rep 1: 95835; Renilla normaliser, rep 1: 6003; outcome: inactive

What is on record for CG14631 #1?
E2F firefly, rep 1: 35425; Renilla normaliser, rep 1: 3379; outcome: inactive

For CG14631 #2, what does the deposit list?
E2F firefly, rep 1: 51149; Renilla normaliser, rep 1: 4621; outcome: inactive

What did the screen give for aos (argos)?
E2F firefly, rep 1: 1.74e5; Renilla normaliser, rep 1: 8243; outcome: inactive

How did the screen score CG12024?
E2F firefly, rep 1: 70626; Renilla normaliser, rep 1: 3426; outcome: inactive
